PubChem BioAssay AID743121, NCATS, 2013
The deposit covers about 26,000 reagents; below is an unselected part. In the full data, 167 (0.63%) were called active. 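Calls are per gene from RSA p-values that are not deposited; an individual active-marked siRNA can sensitise only weakly.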 Unmarked entries are inactive. Reagents against one gene are numbered here. Not all columns of the deposit are shown.

- Aim: 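Genes whose silencing strengthens cell killing by camptothecin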 (primary screen)
- Cell system: MDA-MB-231 cells, a human breast cancer line
- Reagents: single siRNA against human genes, 20 nM siRNA (0.8 pmol per well)
- Time to read-out: 120 h (drug added 48 h after transfection, read 72 h later)
- Treatment: camptothecin 20 nM (about EC30) for 72 h; vehicle 0.1% DMSO in parallel plates
- Measured: 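CellTiter-Glo ATP signal, scaled to control siRNA as percent viability; sensitisation given as log2 of untreated divided by camptothecin-treated viability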
- Direction: log2 vehicle/camptothecin viability: higher = stronger sensitisation to camptothecin; viability with camptothecin: higher = more viable cells
- Active means: 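Each gene scored by redundant siRNA activity (RSA) over its individual siRNA ratios; a gene is called active at p < 0.001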

log2 vehicle/camptothecin viability | viability with camptothecin (% of control) | gene symbol | reagent no.
-0.337 | 58.7 | TPMT (thiopurine S-methyltransferase) | 1
-0.328 | 110 | TPMT (thiopurine S-methyltransferase) | 2
-0.347 | 36.2 | TPMT (thiopurine S-methyltransferase) | 3
-0.00974 | 99 | RAB13 (RAB13, member RAS oncogene family) | 1
-0.243 | 106 | RAB13 (RAB13, member RAS oncogene family) | 2
0.1 | 85.8 | RAB13 (RAB13, member RAS oncogene family) | 3
0.00644 | 36.6 | RAB13 (RAB13, member RAS oncogene family) | 4
0.00911 | 94 | TMX1 (thioredoxin related transmembrane protein 1) | 1
-0.183 | 96.2 | TMX1 (thioredoxin related transmembrane protein 1) | 2
-0.117 | 98.2 | TMX1 (thioredoxin related transmembrane protein 1) | 3
0.0279 | 37.2 | TMX1 (thioredoxin related transmembrane protein 1) | 4
-0.0552 | 86.1 | KDM2B (lysine demethylase 2B) | 1
-0.0154 | 93.3 | KDM2B (lysine demethylase 2B) | 2
0.0898 | 72.1 | KDM2B (lysine demethylase 2B) | 3
-0.154 | 104 | KDM2B (lysine demethylase 2B) | 4
0.241 | 66.1 | MME (membrane metalloendopeptidase) | 1
-0.381 | 52.7 | MME (membrane metalloendopeptidase) | 2
-0.0957 | 55.1 | MME (membrane metalloendopeptidase) | 3
0.00855 | 34.3 | MME (membrane metalloendopeptidase) | 4
0.115 | 80.3 | PBK (PDZ binding kinase) | 1
-0.551 | 50.9 | PBK (PDZ binding kinase) | 2
-0.0617 | 105 | PBK (PDZ binding kinase) | 3
-0.0651 | 115 | PBK (PDZ binding kinase) | 4
-0.145 | 74.8 | EFNA1 (ephrin A1) | 1
-0.217 | 47.3 | EFNA1 (ephrin A1) | 2
-0.0204 | 83.6 | EFNA1 (ephrin A1) | 3
-0.461 | 63.9 | RAD54L (RAD54 like) | 1
-0.106 | 88.6 | RAD54L (RAD54 like) | 2
-0.0997 | 46 | RAD54L (RAD54 like) | 3
-0.0299 | 106 | BMPR1A (bone morphogenetic protein receptor type 1A) | 1
-0.205 | 103 | BMPR1A (bone morphogenetic protein receptor type 1A) | 2
-0.137 | 88.7 | BMPR1A (bone morphogenetic protein receptor type 1A) | 3
-0.111 | 104 | BMPR1A (bone morphogenetic protein receptor type 1A) | 4

10 entries already listed, ordered by “viability with camptothecin (% of control)”, highest first.
log2 vehicle/camptothecin viability | viability with camptothecin (% of control) | gene symbol | reagent no.
-0.154 | 104 | KDM2B (lysine demethylase 2B) | 4
-0.0154 | 93.3 | KDM2B (lysine demethylase 2B) | 2
-0.0552 | 86.1 | KDM2B (lysine demethylase 2B) | 1
0.115 | 80.3 | PBK (PDZ binding kinase) | 1
0.0898 | 72.1 | KDM2B (lysine demethylase 2B) | 3
0.241 | 66.1 | MME (membrane metalloendopeptidase) | 1
-0.0957 | 55.1 | MME (membrane metalloendopeptidase) | 3
-0.381 | 52.7 | MME (membrane metalloendopeptidase) | 2
0.0279 | 37.2 | TMX1 (thioredoxin related transmembrane protein 1) | 4
0.00855 | 34.3 | MME (membrane metalloendopeptidase) | 4

The list goes on.
log2 vehicle/camptothecin viability | viability with camptothecin (% of control) | gene symbol | reagent no.
-0.13 | 91.6 | GPR50 (G protein-coupled receptor 50) | 1
0.0394 | 84.4 | GPR50 (G protein-coupled receptor 50) | 2
0.176 | 48.1 | GPR50 (G protein-coupled receptor 50) | 3
-0.279 | 86.4 | GPR50 (G protein-coupled receptor 50) | 4
-0.353 | 90.7 | EYA4 (EYA transcriptional coactivator and phosphatase 4) | 1
-0.027 | 82.9 | EYA4 (EYA transcriptional coactivator and phosphatase 4) | 2
-0.403 | 82.4 | EYA4 (EYA transcriptional coactivator and phosphatase 4) | 3
-0.553 | 121 | EYA4 (EYA transcriptional coactivator and phosphatase 4) | 4
-0.019 | 106 | PDE7B (phosphodiesterase 7B) | 1
-0.103 | 91.4 | PDE7B (phosphodiesterase 7B) | 2
0.359 | 58.2 | PDE7B (phosphodiesterase 7B) | 3
0.12 | 56.4 | PDE7B (phosphodiesterase 7B) | 4
0.125 | 61.3 | AKR1B10 (aldo-keto reductase family 1 member B10) | 1
-0.356 | 103 | AKR1B10 (aldo-keto reductase family 1 member B10) | 2
-0.237 | 85.2 | AKR1B10 (aldo-keto reductase family 1 member B10) | 3
0.354 | 41.4 | AKR1B10 (aldo-keto reductase family 1 member B10) | 4
-0.0722 | 51.3 | SAG (S-antigen visual arrestin) | 1
0.397 | 53.4 | SAG (S-antigen visual arrestin) | 2
-0.0395 | 97.8 | SAG (S-antigen visual arrestin) | 3
-0.57 | 91 | SAG (S-antigen visual arrestin) | 4
-0.215 | 96.1 | AGTR1 (angiotensin II receptor type 1) | 1
-0.525 | 91.6 | AGTR1 (angiotensin II receptor type 1) | 2
-0.207 | 94.8 | AGTR1 (angiotensin II receptor type 1) | 3
-0.372 | 77.6 | AGTR1 (angiotensin II receptor type 1) | 4
-0.491 | 99.6 | E2F4 (E2F transcription factor 4) | 1
-0.361 | 108 | E2F4 (E2F transcription factor 4) | 2
-0.191 | 77.5 | E2F4 (E2F transcription factor 4) | 3
-0.25 | 116 | E2F4 (E2F transcription factor 4) | 4
-0.416 | 54 | PIN1 (peptidylprolyl cis/trans isomerase, NIMA-interacting 1) | 1
-0.415 | 47.1 | PIN1 (peptidylprolyl cis/trans isomerase, NIMA-interacting 1) | 2
0.241 | 36.6 | PIN1 (peptidylprolyl cis/trans isomerase, NIMA-interacting 1) | 3
-1.21 | 10.9 | PIN1 (peptidylprolyl cis/trans isomerase, NIMA-interacting 1) | 4
-0.077 | 103 | TRH (thyrotropin releasing hormone) | 1
0.782 | 44.6 | TRH (thyrotropin releasing hormone) | 2
0.568 | 27.5 | TRH (thyrotropin releasing hormone) | 3
-0.406 | 75.7 | TRH (thyrotropin releasing hormone) | 4
-0.0586 | 48.9 | LMNA (lamin A/C) | 1
-0.116 | 70.4 | LMNA (lamin A/C) | 2
-0.133 | 47.1 | LMNA (lamin A/C) | 3
-0.0568 | 68.5 | LMNA (lamin A/C) | 4
-0.106 | 77.5 | CDKN2C (cyclin dependent kinase inhibitor 2C) | 1
-0.411 | 116 | CDKN2C (cyclin dependent kinase inhibitor 2C) | 2
-0.18 | 114 | CDKN2C (cyclin dependent kinase inhibitor 2C) | 3
-0.0918 | 104 | CDKN2C (cyclin dependent kinase inhibitor 2C) | 4
-0.278 | 95.6 | F5 (coagulation factor V) | 1
-0.329 | 87.2 | F5 (coagulation factor V) | 2
-0.326 | 77.3 | F5 (coagulation factor V) | 3
-0.131 | 105 | F5 (coagulation factor V) | 4
-0.863 | 84.7 | TIPIN (TIMELESS interacting protein) | 1
-0.394 | 41 | TIPIN (TIMELESS interacting protein) | 2
0.0688 | 30.2 | TIPIN (TIMELESS interacting protein) | 3
-0.344 | 27 | TIPIN (TIMELESS interacting protein) | 4
-0.655 | 54.3 | OR5L2 (olfactory receptor family 5 subfamily L member 2) | 1
0.258 | 44 | OR5L2 (olfactory receptor family 5 subfamily L member 2) | 2
0.0218 | 75.8 | OR5L2 (olfactory receptor family 5 subfamily L member 2) | 3
-0.04 | 81.9 | OR5L2 (olfactory receptor family 5 subfamily L member 2) | 4
